Reference: paper PMC7819943, “Rice protein-binding microarrays: a tool to detect cis-acting elements near promoter regions in rice”
This is one part of the list.

molecular target: T1, OsSMF1 (Oryza sativa, UniProt Q6ZLB0 1-436); assay: protein-binding microarray (RPBM); PBS, 2% BSA, 51.3 ng/ul salmon testes DNA, 50 uM zinc acetate, 200 nM TF, 25 C, 1 h; high values mean tight binding; conditions: protein: recombinant; tags: N-terminal polyhistidine and DsRed monomer fusion (pET32a); chain copies: 2; label: CyDye5-dUTP incorporated in the synthesized complementary strand; 3' TTTTT single-stranded linker to array surface; dsDNA, one strand shown
T1 sequence: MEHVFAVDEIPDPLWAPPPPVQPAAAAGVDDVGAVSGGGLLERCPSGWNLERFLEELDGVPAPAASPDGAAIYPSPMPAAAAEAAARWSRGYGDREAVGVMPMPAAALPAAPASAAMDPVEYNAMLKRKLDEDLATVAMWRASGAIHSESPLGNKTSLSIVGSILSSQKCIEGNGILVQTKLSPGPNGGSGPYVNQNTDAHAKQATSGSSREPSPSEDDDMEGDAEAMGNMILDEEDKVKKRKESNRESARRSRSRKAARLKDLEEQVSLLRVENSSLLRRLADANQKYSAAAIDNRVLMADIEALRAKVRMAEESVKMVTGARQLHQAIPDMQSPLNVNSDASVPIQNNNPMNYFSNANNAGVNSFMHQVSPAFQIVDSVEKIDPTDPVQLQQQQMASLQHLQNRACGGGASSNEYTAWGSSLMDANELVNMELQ
Procedure, shortened: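 In PBS with 2% BSA, salmon testes DNA and 50 µM zinc acetate, 200 nM protein was incubated on a custom Agilent array at 25 °C for 1 h and then washed off. The array had been made double-stranded by primer extension with Cy5-dUTP and blocked with 2% BSA. The proteins were transcription factors fused N-terminally to polyhistidine and DsRed, expressed in E. coli BL21-CodonPlus and purified on Ni–NTA. The binding signal is per-feature fluorescence intensity (arbitrary units) from an Axon 4000B scanner.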

In order of falling binding signal:
1. GTGGCATTGACGTGGCGCTTACGTGTCAATTCTACTCCGGCGGAGTCACCTAGTGCAG  44200 fluorescence intensity (a.u.)
2. AGGCTCCCCTGAGTCGTGACGTGCACTCGAAAGTCGAAAGCGGAGTCACCTAGTGCAG  41100 fluorescence intensity (a.u.)
3. CATGTTCGTGCGCCGTCACTACAGGCACCTCGCTGTCAACCGGAGTCACCTAGTGCAG  40100 fluorescence intensity (a.u.)
4. GGCTCACTTATTGGGTCAACTAAACTTGTATTATTGGAATCGGAGTCACCTAGTGCAG  38500 fluorescence intensity (a.u.)
5. GTTTTGGCTGACGTGGCGCCTACGTGGTTTGTTTGACCTACGGAGTCACCTAGTGCAG  37300 fluorescence intensity (a.u.)
6. AATTTAATGCCACGTAAGCGCCACGTTGATGCTATGTAAGCGGAGTCACCTAGTGCAG  35700 fluorescence intensity (a.u.)
7. GCCCGCCACTTGCTGACACGACATGACCCGCGCACCAAATCGGAGTCACCTAGTGCAG  35400 fluorescence intensity (a.u.)
8. CGCTGTGTATATATGTGCAGGTCCATCCATGAGAGGTTGACGGAGTCACCTAGTGCAG  34900 fluorescence intensity (a.u.)
9. TAATTAAGAGCTCCACACTTCCACTTATCTGGGTTTGATGCGGAGTCACCTAGTGCAG  28300 fluorescence intensity (a.u.)
10. TTGTTTATAAAGACAATAGGTGGAATTTGATCTGGAAATGCGGAGTCACCTAGTGCAG  27600 fluorescence intensity (a.u.)
11. CTCCCATAGCTGTCCTTATATGGTGATCCTGATTCCACATCGGAGTCACCTAGTGCAG  26500 fluorescence intensity (a.u.)
12. TTGCAACTAGTAGAAGATGAATTTGGTTTTATATGTTTGTCGGAGTCACCTAGTGCAG  26200 fluorescence intensity (a.u.)
13. TCAATAAATCATAAAACAAATTTATTAAGCCTAATTAATCCGGAGTCACCTAGTGCAG  24300 fluorescence intensity (a.u.)
14. GGGGAGTATCGGTTCTGGCATCGTACTAAACGGTATTGTCCGGAGTCACCTAGTGCAG  19700 fluorescence intensity (a.u.)
15. GGGAGTGTACATCTCAGTTGACGTGGACTGCCTCGATCCCCGGAGTCACCTAGTGCAG  18700 fluorescence intensity (a.u.)
16. TTACGCTTAATAAATTCGTCTCACGGTTTCCATGCAAGTTCGGAGTCACCTAGTGCAG  15500 fluorescence intensity (a.u.)
17. TGCGGTTTCCCTTCTTGACCTTTCGAGTAATCAAATAACGCGGAGTCACCTAGTGCAG  14600 fluorescence intensity (a.u.)
18. CGTTGCCATGTTGGCATGCCACGTGGGCAAAAGTGGCAAACGGAGTCACCTAGTGCAG  13500 fluorescence intensity (a.u.)
19. GAAACGTGACGGCAACGTCAGCTTTATTACCGATGCAGGTCGGAGTCACCTAGTGCAG  7060 fluorescence intensity (a.u.)
20. CCTGCATCAAGAGGATGCGTCACCGATGAGTAGATCCTGCCGGAGTCACCTAGTGCAG  6970 fluorescence intensity (a.u.)
21. CGCCGGTGTATATATCGGATCTTTCCAACTCAGCGCCACACGGAGTCACCTAGTGCAG  6840 fluorescence intensity (a.u.)
22. CTCTCTCCTCACGTCACGAATCAACGATCCTAGGAACAACCGGAGTCACCTAGTGCAG  6400 fluorescence intensity (a.u.)
23. TTTCTTTTCAAAACATATCCATATACACGTGCACACACTCCGGAGTCACCTAGTGCAG  5530 fluorescence intensity (a.u.)
24. ATGGTGATTGGGAGGGTGAATCAGAGTGACTAAAAGAAATCGGAGTCACCTAGTGCAG  5230 fluorescence intensity (a.u.)
25. TACCCAAGTCGACGCAACCGGATGCTGACTACCACCCAAGCGGAGTCACCTAGTGCAG  5040 fluorescence intensity (a.u.)
26. TTTAGTTGAAATTAAACATATCCACGTATTCATTTTATACCGGAGTCACCTAGTGCAG  4880 fluorescence intensity (a.u.)
27. CATCCGCGTCTCTCGTCACGCCCACACCACCACCCACCAACGGAGTCACCTAGTGCAG  4850 fluorescence intensity (a.u.)
28. CTCACAGTCGTCATCGTCGCTACCGCCGCCGCCGCCGCTGCGGAGTCACCTAGTGCAG  4830 fluorescence intensity (a.u.)
29. AAATCGCATGTATACATGTACAAATAGCGTTGCTTTGTCACGGAGTCACCTAGTGCAG  4760 fluorescence intensity (a.u.)
30. ACGTTATAGTTTAGAACATGACGTAACATAGATGTGTAGGCGGAGTCACCTAGTGCAG  4740 fluorescence intensity (a.u.)
31. ATATGATGTCACAATAAAATGCCAGTCCGAGTGATTTTCTCGGAGTCACCTAGTGCAG  4730 fluorescence intensity (a.u.)
32. TATAATTGCCACGGTCATCGCCACATCAATGTCACGTGGGCGGAGTCACCTAGTGCAG  4640 fluorescence intensity (a.u.)
33. ACTATCGGTACATATCTTATTGACATCATGCCTATATGACCGGAGTCACCTAGTGCAG  4560 fluorescence intensity (a.u.)
34. AGGGGTCCTAATAGTAGAGAATGACGAAGCAAATTTTGCACGGAGTCACCTAGTGCAG  4360 fluorescence intensity (a.u.)
35. ATAAGTCCACAAACATTTGGCCCACTTCCCCGTCACACCTCGGAGTCACCTAGTGCAG  4220 fluorescence intensity (a.u.)
36. GCGGGCGTCGTAGCCGGTGCCTGCGCTGGCGCTCCCTCCCCGGAGTCACCTAGTGCAG  4040 fluorescence intensity (a.u.)
37. GCCTCCTCTCCTCTCTCTCGCCTGTGACCTGTCCCTACCTCGGAGTCACCTAGTGCAG  3860 fluorescence intensity (a.u.)
38. TTGTTGTTTACCGTCACACTTAATTACCAGGTCATTTACACGGAGTCACCTAGTGCAG  3850 fluorescence intensity (a.u.)
39. TCGCCGGTCAGAGGCCACTGTGTCATCGTGCTTCTCCGACCGGAGTCACCTAGTGCAG  3750 fluorescence intensity (a.u.)
40. TGCTCTCTGTAAATGTAATGTGCATGGGTGTCATATCTAGCGGAGTCACCTAGTGCAG  3620 fluorescence intensity (a.u.)
41. ACGGGCATGGGTAGTCACTACCCGTGCCCGTCGTGCCCGACGGAGTCACCTAGTGCAG  3560 fluorescence intensity (a.u.)
42. GCTTCTGCTGTGGCTGTGCTGAGCTTTCACAGTCACAGCCCGGAGTCACCTAGTGCAG  3550 fluorescence intensity (a.u.)
43. GGACCGTCGAGCTCCATGACCGCTTCGTCGACGCCGTCACCGGAGTCACCTAGTGCAG  3500 fluorescence intensity (a.u.)
44. GAGCTCCGGACCTGGCTCGCGTCACCGACAAGTGGGCCCCCGGAGTCACCTAGTGCAG  3490 fluorescence intensity (a.u.)
45. GCACGAATCATGGAGTAGATATAAAGGTCAAGATTTGCAACGGAGTCACCTAGTGCAG  3490 fluorescence intensity (a.u.)
46. CGTGGTCGCCCTCCAAAGTCTCGCGCCGACGCACGCCCACCGGAGTCACCTAGTGCAG  3440 fluorescence intensity (a.u.)
47. GCTACGATGCGATCTCATCATCATCATCCATTCATTCATTCGGAGTCACCTAGTGCAG  3440 fluorescence intensity (a.u.)
48. CATCAACACTTCGCATCGTGTGCTTGCAACTCACGGCTCACGGAGTCACCTAGTGCAG  3400 fluorescence intensity (a.u.)
49. TGTGCACGAGCTTAGCGAGGGTGGTCGGTGATCTGCTCGGCGGAGTCACCTAGTGCAG  3380 fluorescence intensity (a.u.)
50. TCTTGTGTGTTTGTTCCGATTTGCTGCTCAATCTGTCCATCGGAGTCACCTAGTGCAG  3240 fluorescence intensity (a.u.)
51. AAGAACGCCTTCGCGTGGGCCGCCGTCATCGGGATGTGGACGGAGTCACCTAGTGCAG  3220 fluorescence intensity (a.u.)
52. CCCCACGCCACAGCCTCTTATCCCACACGCGGACCAACAGCGGAGTCACCTAGTGCAG  3200 fluorescence intensity (a.u.)
53. CGGTCGAAAATTGACGGAGGATCACTGTCAGTCACCGGCGCGGAGTCACCTAGTGCAG  3160 fluorescence intensity (a.u.)
54. GGGCCCACCTGTCATTGGGTAGACGCAAGTACTGCCATGTCGGAGTCACCTAGTGCAG  3140 fluorescence intensity (a.u.)
